Measurements reported in PubChem BioAssay AID602196 (INSERM, 2012).
Purpose: 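Modifiers of cisplatin sensitivity in A549 cells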. Cells: human A549 lung cancer cells. Reagents: siRNA pair against human genes. Duration: 48 h transfection before cisplatin; time from cisplatin to read-out not stated. Challenge: cisplatin at a dose killing half of control-siRNA cells; exact dose and duration not given. Read-out: 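Shift in cisplatin death relative to control siRNA, from -50 (all cells die) to +50 (no cells die); siRNAs harmful on their own scored 0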. Direction: two-siRNA summed score (-2 to +2): higher = both siRNAs protect from cisplatin killing; -2 means both sensitise. Rule for the call: 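siRNAs harmful alone (LDH or WST-1) get 0; others get +1 for less and -1 for more cisplatin killing; genes are active when the two siRNAs give the same sign, summing to ±2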. Calls: active = both siRNAs shift cisplatin killing the same way; inactive = no consistent shift, or siRNA harmful alone.
Shown is an unselected part of about 23,000 reagents tested. 455 of all reagents (2%) count as active. 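Active includes both protection and sensitisation; some change values fall well beyond the stated -50 to +50 range.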 The numbers tell different reagents against one gene apart. Further read-outs or replicates are left out here. Not given: the amount of reagent.

two-siRNA summed score (-2 to +2), by gene and reagent
APH1B: #1 0 inactive
MOB1A: #1 0 inactive
BCS1L: #1 0 inactive
LOC340393: #1 0 inactive
TASOR: #1 0 inactive
LOC391510: #1 0 inactive
RNPS1: #1 0 inactive
LOC439987: #1 1 inactive
LOC390006: #1 0 inactive
IGFBPL1: #1 0 inactive
TRAP1: #1 1 inactive
NCKAP5L: #1 0 inactive
RAB1B: #1 0 inactive
LOC440232: #1 1 inactive
MYL3: #1 0 inactive
RPP38: #1 -1 inactive
MEPE: #1 0 inactive
N4BP2: #1 0 inactive
RPRM: #1 -1 inactive
XPA: #1 0 inactive
RELT: #1 1 inactive
FLJ13224: #1 0 inactive
ADIPOQ: #1 0 inactive
LINC00955: #1 0 inactive
LOC388966: #1 0 inactive
PPAT: #1 0 inactive
GPC6: #1 0 inactive
STRAP: #1 -1 inactive
LOC440791: #1 1 inactive
C9orf40: #1 0 inactive
SLC6A20: #1 0 inactive
ASB12: #1 0 inactive
LOC441647: #1 1 inactive
ERAP1: #1 0 inactive
PRMT1: #1 0 inactive
ZNF675: #1 -1 inactive
LOC400046: #1 0 inactive
CDT1: #1 0 inactive
STXBP6: #1 0 inactive
TMEM268: #1 0 inactive
SLC6A4: #1 0 inactive
RNF183: #1 0 inactive
GLB1L: #1 0 inactive
CSE1L: #1 0 inactive
TMEM63B: #1 0 inactive
LOC441578: #1 0 inactive
TRMT2A: #1 -1 inactive
DNAJC13: #1 0 inactive
LOC400939: #1 1 inactive
PCMTD1: #1 1 inactive
LOC401606: #1 1 inactive
LOC388532: #1 1 inactive
FOXP4: #1 -1 inactive; #2 -1 inactive
SMPD4: #1 0 inactive
THTPA: #1 -1 inactive
CD79A: #1 -1 inactive
GPHRB: #1 2 active
LOC400861: #1 0 inactive
PAPPA2: #1 0 inactive
TACC2: #1 0 inactive
SERP1: #1 0 inactive
SLC71A3P: #1 0 inactive
RBMY1F: #1 0 inactive
TMEM184B: #1 1 inactive
MAPRE2: #1 -1 inactive
STAT5A: #1 -1 inactive
LOC401132: #1 0 inactive
CAMP: #1 1 inactive
NHEJ1: #1 0 inactive
FLJ14351: #1 0 inactive
FLJ34236: #1 0 inactive
GRINA: #1 1 inactive

Records listed so far with an active call:
two-siRNA summed score (-2 to +2), by gene and reagent
GPHRB: #1 2 active
